Data published in paper PMC7202210.
These are yes or no findings as the source states them, for the method shown. Binding seen in cells or lysates may run through a third protein. Some results given as binding are weak or reduced against the parent protein; the word gives no strength. For some of these results: Tags and fused reporters may be left off the sequences shown.

By UniProt entry, the sequences of proteins in these tests, tags left out.
UniProt Q6ZNE5: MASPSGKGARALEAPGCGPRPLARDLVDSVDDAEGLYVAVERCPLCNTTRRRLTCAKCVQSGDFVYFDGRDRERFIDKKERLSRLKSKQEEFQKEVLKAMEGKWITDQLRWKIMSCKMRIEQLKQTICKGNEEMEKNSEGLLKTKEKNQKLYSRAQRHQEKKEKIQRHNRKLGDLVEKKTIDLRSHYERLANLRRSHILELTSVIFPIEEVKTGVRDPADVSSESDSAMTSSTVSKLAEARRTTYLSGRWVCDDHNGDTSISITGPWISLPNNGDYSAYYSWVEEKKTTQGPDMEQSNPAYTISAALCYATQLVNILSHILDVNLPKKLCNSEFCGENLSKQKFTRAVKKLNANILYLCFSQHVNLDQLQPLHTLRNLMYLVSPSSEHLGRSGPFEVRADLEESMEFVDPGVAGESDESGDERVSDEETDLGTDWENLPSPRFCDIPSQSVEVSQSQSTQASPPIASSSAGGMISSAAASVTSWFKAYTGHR
UniProt P56962: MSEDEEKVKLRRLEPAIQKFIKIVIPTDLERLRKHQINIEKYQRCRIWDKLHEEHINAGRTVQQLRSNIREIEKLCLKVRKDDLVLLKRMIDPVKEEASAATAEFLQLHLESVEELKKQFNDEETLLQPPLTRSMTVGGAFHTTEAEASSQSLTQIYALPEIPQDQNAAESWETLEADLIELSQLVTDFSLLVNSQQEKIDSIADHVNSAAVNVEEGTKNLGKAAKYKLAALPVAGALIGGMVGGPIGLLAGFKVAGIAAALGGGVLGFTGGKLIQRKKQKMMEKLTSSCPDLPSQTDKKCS

Columns and labels:
[1] = target: T1, GST-CbpFR6 (Streptococcus pneumoniae R6) (UniProt Q8DR52); assay: pull-down; only the target purified
T1 sequence: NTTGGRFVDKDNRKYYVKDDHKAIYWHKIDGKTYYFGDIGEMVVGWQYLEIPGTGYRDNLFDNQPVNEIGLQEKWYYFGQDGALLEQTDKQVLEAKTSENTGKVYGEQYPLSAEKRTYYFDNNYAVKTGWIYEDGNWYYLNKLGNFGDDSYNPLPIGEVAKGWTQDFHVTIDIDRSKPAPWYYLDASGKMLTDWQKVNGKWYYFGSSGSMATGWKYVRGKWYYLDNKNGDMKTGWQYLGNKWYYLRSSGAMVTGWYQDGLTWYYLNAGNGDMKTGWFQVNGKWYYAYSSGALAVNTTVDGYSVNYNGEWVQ

[2] = target: Nanoluc-Atg14 (human) (UniProt Q6ZNE5); assay: FRET or BRET
[3] = target: T1, GST-CbpFR6 (Streptococcus pneumoniae R6); assay: pull-down
[4] = target: HA-Atg14 (stably expressed in MEFs) (human) (UniProt Q6ZNE5); assay: co-IP

Molecule: GFP-Atg14 full length (FL) (from UniProt Q6ZNE5 1-492)
- binding [1]: binds

Molecule: HaloTag-Stx17 (from UniProt P56962 1-302)
- binding [2]: binds

Molecule: recombinant 3Myc-Atg14 (expressed in E. coli) (from UniProt Q6ZNE5 1-492)
- binding [3]: binds

B1: CbpFR6-FLAG (protein, UniProt Q8DR52 28-338)
chain: T1 sequence
- binding [4]: binds
